13 targets from the supplement of paper PMC6411743 can be followed below.

Protein sequences, listed by entry. Tags and fused reporters are not part of them. Lines headed by an entry give the natural chain unless they say otherwise; changes in a name come on top.
UniProt Q9BXS9: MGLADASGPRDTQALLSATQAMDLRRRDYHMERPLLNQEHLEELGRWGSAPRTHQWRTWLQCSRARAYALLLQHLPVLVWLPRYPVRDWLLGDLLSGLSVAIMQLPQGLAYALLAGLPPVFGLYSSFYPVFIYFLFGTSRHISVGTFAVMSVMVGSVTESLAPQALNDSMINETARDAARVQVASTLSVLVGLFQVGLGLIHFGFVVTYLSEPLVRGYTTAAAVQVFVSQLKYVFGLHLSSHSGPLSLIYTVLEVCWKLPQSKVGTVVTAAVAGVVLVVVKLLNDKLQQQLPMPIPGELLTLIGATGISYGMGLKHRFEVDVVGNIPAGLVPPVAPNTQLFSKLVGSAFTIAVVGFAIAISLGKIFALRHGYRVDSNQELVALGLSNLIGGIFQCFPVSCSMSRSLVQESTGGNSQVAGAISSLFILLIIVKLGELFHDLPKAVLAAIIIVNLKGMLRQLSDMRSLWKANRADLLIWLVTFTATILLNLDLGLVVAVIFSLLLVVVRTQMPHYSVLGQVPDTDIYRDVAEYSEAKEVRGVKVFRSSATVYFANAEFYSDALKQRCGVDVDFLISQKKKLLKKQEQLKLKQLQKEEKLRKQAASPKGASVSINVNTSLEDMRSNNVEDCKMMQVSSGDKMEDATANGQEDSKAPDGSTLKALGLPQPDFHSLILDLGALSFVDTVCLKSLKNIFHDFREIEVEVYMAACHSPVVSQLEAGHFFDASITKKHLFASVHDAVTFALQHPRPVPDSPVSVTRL
UniProt O95619, whole entry: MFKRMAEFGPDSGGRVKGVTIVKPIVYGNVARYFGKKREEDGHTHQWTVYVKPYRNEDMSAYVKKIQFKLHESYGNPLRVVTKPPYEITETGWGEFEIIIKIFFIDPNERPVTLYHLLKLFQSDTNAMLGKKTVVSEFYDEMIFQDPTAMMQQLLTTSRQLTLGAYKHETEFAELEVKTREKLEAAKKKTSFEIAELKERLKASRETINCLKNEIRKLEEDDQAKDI
UniProt Q9C0E2: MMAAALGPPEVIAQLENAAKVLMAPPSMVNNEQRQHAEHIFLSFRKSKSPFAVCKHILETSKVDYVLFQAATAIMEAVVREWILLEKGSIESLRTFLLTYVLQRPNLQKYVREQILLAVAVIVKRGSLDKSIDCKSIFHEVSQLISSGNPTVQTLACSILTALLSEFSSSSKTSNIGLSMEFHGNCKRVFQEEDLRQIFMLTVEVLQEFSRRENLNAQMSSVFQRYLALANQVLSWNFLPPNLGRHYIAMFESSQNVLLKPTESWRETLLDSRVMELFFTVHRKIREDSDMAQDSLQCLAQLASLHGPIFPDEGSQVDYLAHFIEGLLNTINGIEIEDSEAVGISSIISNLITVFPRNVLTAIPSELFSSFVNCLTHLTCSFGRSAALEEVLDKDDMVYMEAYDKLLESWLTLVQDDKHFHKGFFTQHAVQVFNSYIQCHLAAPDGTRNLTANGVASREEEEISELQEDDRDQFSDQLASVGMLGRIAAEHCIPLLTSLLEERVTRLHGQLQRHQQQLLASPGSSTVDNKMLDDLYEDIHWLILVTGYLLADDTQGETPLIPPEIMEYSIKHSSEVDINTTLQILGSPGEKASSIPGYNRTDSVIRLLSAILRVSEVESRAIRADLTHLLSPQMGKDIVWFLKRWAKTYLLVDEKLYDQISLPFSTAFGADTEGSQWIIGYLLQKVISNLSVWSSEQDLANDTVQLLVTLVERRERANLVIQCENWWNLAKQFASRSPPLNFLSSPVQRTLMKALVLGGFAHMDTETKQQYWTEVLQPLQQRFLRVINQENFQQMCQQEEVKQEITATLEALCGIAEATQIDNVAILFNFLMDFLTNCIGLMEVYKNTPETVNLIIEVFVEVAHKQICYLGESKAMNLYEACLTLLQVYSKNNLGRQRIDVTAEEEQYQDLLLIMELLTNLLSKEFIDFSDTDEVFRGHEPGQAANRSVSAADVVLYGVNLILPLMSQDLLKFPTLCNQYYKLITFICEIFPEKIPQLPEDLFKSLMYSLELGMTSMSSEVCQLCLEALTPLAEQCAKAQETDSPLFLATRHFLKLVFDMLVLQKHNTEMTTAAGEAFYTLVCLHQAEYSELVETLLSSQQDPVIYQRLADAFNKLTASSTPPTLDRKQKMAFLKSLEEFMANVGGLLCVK
UniProt P07311: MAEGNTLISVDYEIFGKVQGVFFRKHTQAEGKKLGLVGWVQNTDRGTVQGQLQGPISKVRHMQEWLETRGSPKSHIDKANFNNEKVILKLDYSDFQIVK
UniProt O14757: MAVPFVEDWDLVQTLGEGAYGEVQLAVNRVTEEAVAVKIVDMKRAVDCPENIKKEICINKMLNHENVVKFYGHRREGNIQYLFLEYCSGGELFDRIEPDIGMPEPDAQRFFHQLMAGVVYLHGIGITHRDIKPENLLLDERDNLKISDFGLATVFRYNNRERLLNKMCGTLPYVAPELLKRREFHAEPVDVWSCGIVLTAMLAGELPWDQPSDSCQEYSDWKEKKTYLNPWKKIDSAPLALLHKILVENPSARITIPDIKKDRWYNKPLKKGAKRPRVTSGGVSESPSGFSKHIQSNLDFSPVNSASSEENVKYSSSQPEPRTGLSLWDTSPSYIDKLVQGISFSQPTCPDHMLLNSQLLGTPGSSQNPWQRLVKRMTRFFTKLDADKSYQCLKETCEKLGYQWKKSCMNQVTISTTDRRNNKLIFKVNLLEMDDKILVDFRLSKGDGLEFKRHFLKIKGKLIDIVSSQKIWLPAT
UniProt Q9HCU9: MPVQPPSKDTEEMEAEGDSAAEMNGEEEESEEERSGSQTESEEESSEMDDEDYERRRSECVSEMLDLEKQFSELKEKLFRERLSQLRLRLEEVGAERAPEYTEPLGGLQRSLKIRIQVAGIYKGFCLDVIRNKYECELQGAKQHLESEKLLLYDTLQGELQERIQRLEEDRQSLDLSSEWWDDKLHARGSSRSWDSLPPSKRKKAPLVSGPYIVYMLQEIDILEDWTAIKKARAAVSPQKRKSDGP
UniProt Q9GZN1, whole entry: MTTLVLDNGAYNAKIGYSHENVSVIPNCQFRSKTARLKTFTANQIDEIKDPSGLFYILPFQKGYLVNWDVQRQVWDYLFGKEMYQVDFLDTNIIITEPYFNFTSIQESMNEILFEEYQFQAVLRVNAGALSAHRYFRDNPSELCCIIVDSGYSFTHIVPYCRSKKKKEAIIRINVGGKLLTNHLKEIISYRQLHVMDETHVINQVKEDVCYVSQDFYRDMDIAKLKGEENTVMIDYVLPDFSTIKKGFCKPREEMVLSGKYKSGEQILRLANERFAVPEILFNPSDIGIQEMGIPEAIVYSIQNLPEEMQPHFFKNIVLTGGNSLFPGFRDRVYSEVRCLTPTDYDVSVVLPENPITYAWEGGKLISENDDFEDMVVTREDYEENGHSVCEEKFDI
UniProt P57764: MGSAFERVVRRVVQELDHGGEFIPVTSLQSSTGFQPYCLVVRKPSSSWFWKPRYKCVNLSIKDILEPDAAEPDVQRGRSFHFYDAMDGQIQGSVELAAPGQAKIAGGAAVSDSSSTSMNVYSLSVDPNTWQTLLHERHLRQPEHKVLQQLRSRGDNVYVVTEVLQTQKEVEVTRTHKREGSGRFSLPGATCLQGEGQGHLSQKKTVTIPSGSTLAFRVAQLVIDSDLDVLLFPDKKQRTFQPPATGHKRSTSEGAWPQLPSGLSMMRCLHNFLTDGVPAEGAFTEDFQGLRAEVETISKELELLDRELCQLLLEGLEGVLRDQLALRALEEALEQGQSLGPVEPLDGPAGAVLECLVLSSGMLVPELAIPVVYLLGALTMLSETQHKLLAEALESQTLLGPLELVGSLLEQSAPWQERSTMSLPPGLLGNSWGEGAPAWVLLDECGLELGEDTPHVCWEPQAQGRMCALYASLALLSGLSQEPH
UniProt P56202: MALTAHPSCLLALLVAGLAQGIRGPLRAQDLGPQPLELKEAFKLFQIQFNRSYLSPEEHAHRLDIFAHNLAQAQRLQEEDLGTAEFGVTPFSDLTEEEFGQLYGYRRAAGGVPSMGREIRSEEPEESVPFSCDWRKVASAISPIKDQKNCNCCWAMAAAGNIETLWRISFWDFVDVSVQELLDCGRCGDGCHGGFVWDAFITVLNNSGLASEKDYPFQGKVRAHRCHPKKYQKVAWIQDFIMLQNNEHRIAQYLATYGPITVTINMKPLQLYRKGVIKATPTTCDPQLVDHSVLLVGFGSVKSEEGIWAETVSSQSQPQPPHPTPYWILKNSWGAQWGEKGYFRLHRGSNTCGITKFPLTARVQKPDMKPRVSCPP
UniProt P12694: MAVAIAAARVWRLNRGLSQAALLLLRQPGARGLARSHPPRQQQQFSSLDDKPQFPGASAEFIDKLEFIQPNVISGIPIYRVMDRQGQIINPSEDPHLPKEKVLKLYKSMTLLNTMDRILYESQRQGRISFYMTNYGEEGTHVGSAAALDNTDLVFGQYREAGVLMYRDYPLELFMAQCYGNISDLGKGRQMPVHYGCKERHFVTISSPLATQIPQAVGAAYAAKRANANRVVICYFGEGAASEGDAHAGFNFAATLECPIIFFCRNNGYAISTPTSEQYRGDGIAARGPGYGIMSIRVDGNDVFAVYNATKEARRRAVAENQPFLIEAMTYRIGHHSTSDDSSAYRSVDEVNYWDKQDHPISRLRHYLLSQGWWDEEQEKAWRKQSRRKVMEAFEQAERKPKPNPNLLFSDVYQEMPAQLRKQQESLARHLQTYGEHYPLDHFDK
UniProt Q96RQ3: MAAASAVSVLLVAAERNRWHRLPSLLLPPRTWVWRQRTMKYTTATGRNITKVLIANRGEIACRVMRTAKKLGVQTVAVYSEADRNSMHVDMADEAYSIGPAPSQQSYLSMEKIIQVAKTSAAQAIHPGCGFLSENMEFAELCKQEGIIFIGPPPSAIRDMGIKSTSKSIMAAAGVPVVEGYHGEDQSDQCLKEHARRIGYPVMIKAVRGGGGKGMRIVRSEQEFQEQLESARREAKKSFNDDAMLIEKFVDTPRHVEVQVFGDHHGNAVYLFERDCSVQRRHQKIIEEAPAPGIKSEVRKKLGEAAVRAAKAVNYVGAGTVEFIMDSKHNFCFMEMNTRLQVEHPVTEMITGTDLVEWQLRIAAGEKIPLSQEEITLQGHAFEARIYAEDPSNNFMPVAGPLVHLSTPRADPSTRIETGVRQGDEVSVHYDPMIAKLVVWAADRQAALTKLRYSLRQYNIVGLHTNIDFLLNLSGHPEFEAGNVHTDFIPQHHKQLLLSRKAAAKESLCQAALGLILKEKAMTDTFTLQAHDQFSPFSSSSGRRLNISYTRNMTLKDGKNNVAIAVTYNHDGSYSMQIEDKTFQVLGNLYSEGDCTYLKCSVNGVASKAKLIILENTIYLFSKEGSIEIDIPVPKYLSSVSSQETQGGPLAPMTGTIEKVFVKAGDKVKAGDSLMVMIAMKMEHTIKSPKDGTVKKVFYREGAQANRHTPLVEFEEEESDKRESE
UniProt Q6IQ23: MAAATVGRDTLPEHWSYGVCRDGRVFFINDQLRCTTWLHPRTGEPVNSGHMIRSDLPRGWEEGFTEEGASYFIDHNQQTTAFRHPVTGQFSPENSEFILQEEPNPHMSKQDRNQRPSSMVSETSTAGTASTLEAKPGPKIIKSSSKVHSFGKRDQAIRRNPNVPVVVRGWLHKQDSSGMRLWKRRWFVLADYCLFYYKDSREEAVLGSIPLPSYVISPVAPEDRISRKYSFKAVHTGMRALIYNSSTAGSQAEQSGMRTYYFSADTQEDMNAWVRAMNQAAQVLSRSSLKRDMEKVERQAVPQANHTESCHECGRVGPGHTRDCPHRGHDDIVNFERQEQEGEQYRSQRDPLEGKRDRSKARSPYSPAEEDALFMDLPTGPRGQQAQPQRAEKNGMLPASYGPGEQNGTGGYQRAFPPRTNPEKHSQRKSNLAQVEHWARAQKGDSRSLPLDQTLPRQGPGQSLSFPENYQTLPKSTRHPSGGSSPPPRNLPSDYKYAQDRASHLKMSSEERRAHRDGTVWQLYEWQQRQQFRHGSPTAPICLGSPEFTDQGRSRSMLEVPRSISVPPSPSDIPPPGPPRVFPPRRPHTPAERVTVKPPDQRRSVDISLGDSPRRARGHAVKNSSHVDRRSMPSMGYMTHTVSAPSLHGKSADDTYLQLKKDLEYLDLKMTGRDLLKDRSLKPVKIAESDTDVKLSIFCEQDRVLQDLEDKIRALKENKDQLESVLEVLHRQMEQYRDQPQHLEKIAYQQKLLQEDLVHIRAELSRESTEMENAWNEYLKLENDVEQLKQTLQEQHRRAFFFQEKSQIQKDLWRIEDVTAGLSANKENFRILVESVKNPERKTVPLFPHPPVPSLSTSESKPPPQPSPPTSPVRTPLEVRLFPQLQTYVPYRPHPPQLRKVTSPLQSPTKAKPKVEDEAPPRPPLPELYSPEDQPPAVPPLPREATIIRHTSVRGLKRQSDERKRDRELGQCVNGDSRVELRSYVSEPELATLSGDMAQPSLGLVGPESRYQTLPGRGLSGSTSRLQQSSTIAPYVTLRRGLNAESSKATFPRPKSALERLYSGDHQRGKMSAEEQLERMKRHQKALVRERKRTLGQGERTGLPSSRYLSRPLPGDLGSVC

Compound in the assay: Nc1nc2c(ncn2[C@@H]2O[C@H](COP(=O)(O)OP(=O)(O)OP(=O)(O)O)[C@@H](O)[C@H]2O)c(=O)[nH]1 [guanosine triphosphate]
Description: NP40-soluble protein abundance relative to vehicle (solubility fold change) (ratio); higher = more soluble protein in presence of GTP. The method in brief:
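In three independent experiments, Jurkat crude lysate made by Dounce homogenisation was treated for 10 min at room temperature and then 3 min at 37 °C with eight concentrations ranging from 0.1 to 10 mM. It was then solubilised with 0.8% NP40 plus benzonase for 60 min at 4 °C and ultracentrifuged. The supernatant was TMT-labelled for LC-MS/MS, and each value is the fold change against the detergent-processed vehicle for the same replicate, using vsn-normalised intensities.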

± gives the standard deviation of the averaged measurements. The list shows a part of the results.

As to “G3XAC1 and related entries (UniProt Q9BXS9)”, the NP40-soluble protein abundance is, setting by setting: (concentration: 0.1mM) 0.857 ± 0.063; (concentration: 0.5mM) 0.854 ± 0.073; (concentration: 1mM) 0.9 ± 0.045; (concentration: 2mM) 0.911 ± 0.056; (concentration: 4mM) 0.87 ± 0.037; (concentration: 6mM) 0.877 ± 0.036. Moreover, the NP40-soluble protein abundance (concentration: 8mM) is 0.857 ± 0.015 and the NP40-soluble protein abundance (concentration: 10mM) was determined as 0.917 ± 0.042.
On to “F8W0J4 and related entries (UniProt O95619)”, for which the NP40-soluble protein abundance amounted to 0.948 ± 0.051 (concentration: 0.1mM); 0.949 ± 0.064 (concentration: 0.5mM); 1.01 ± 0.044 (concentration: 1mM); 1 ± 0.093 (concentration: 2mM); 1.02 ± 0.13 (concentration: 4mM); 1.01 ± 0.094 (concentration: 6mM). The NP40-soluble protein abundance is 1.07 ± 0.14 (concentration: 8mM) and 1.02 ± 0.14 (concentration: 10mM).
As to “E7EVH9 and related entries (UniProt Q08623)”, the NP40-soluble protein abundance runs as follows: (concentration: 0.1mM) 1 ± 0.035; (concentration: 0.5mM) 0.921 ± 0.058; (concentration: 1mM) 1.03 ± 0.12; (concentration: 2mM) 0.97 ± 0.15; (concentration: 4mM) 0.928 ± 0.15; (concentration: 6mM) 0.894 ± 0.072. The NP40-soluble protein abundance reads like this: (concentration: 8mM) 0.901 ± 0.12; (concentration: 10mM) 0.934 ± 0.1.
With “F2Z2X4 and related entries (UniProt Q9C0E2)”, the NP40-soluble protein abundance is, setting by setting: (concentration: 0.1mM) 1.03 ± 0.034; (concentration: 0.5mM) 1.05 ± 0.12; (concentration: 1mM) 1.04 ± 0.14; (concentration: 2mM) 1.02 ± 0.075; (concentration: 4mM) 0.969 ± 0.12; (concentration: 6mM) 0.996 ± 0.13. Further, the NP40-soluble protein abundance is, setting by setting: (concentration: 8mM) 0.913 ± 0.05; (concentration: 10mM) 0.881 ± 0.046.
For “G3V2U7 and related entries (UniProt P07311)”, the NP40-soluble protein abundance is, setting by setting: (concentration: 0.1mM) 0.918 ± 0.04; (concentration: 0.5mM) 0.896 ± 0.055; (concentration: 1mM) 0.896 ± 0.058; (concentration: 2mM) 0.852 ± 0.061; (concentration: 4mM) 0.851 ± 0.064; (concentration: 6mM) 0.848 ± 0.073. Also, the NP40-soluble protein abundance came to 0.854 ± 0.094 (concentration: 8mM) and 0.842 ± 0.097 (concentration: 10mM).
In the case of “E7EPP6 and related entries (UniProt O14757)”, the NP40-soluble protein abundance (concentration: 0.1mM) is 1.046 ± 0.0087; the NP40-soluble protein abundance (concentration: 0.5mM) stood at 1.05 ± 0.034; the NP40-soluble protein abundance (concentration: 1mM) turned out to be 0.939 ± 0.025; the NP40-soluble protein abundance (concentration: 2mM) was 0.957 ± 0.1; the NP40-soluble protein abundance (concentration: 4mM) is 0.9241 ± 0.0074; the NP40-soluble protein abundance (concentration: 6mM) is 0.934 ± 0.054. In addition, the NP40-soluble protein abundance by setting is: (concentration: 8mM) 0.902 ± 0.021; (concentration: 10mM) 0.888 ± 0.057.
As for “E9PJF5 and related entries (UniProt Q9HCU9)”, the NP40-soluble protein abundance is, setting by setting: (concentration: 0.1mM) 1.06 ± 0.11; (concentration: 0.5mM) 1.07 ± 0.059; (concentration: 1mM) 1.16 ± 0.12; (concentration: 2mM) 1.24 ± 0.1; (concentration: 4mM) 1.32 ± 0.17; (concentration: 6mM) 1.27 ± 0.11. In addition, the NP40-soluble protein abundance by setting is: (concentration: 8mM) 1.22 ± 0.13; (concentration: 10mM) 1.3 ± 0.18.
For “F8W057 and related entries (UniProt Q9GZN1)”, the NP40-soluble protein abundance turned out to be 1.07 ± 0.071 (concentration: 0.1mM); 1.12 ± 0.041 (concentration: 0.5mM); 1.08 ± 0.06 (concentration: 1mM); 1.18 ± 0.081 (concentration: 2mM); 1.13 ± 0.045 (concentration: 4mM); 1.15 ± 0.02 (concentration: 6mM). Also, the NP40-soluble protein abundance (concentration: 8mM) amounted to 1.19 ± 0.11 and the NP40-soluble protein abundance (concentration: 10mM) was found to be 1.14 ± 0.045.
As for “E9PQR9 and related entries (UniProt P57764)”, the NP40-soluble protein abundance worked out at 1.04 ± 0.056 (concentration: 0.1mM); 0.994 ± 0.025 (concentration: 0.5mM); 0.946 ± 0.024 (concentration: 1mM); 0.927 ± 0.041 (concentration: 2mM); 0.958 ± 0.065 (concentration: 4mM); 0.901 ± 0.051 (concentration: 6mM). The NP40-soluble protein abundance is 0.943 ± 0.057 (concentration: 8mM) and 0.895 ± 0.049 (concentration: 10mM).
Turning to “E9PI30 and related entries (UniProt P56202)”, the NP40-soluble protein abundance by setting is: (concentration: 0.1mM) 0.976 ± 0.083; (concentration: 0.5mM) 1.01 ± 0.08; (concentration: 1mM) 0.982 ± 0.15; (concentration: 2mM) 0.969 ± 0.057; (concentration: 4mM) 0.973 ± 0.082; (concentration: 6mM) 0.988 ± 0.12. The NP40-soluble protein abundance is, setting by setting: (concentration: 8mM) 1.02 ± 0.084; (concentration: 10mM) 1.02 ± 0.021.
Take “F5H5P2 and related entries (UniProt P12694+F5H5P2)”: the NP40-soluble protein abundance runs as follows: (concentration: 0.1mM) 1.01 ± 0.061; (concentration: 0.5mM) 0.969 ± 0.053; (concentration: 1mM) 0.975 ± 0.017; (concentration: 2mM) 1.01 ± 0.042; (concentration: 4mM) 1.11 ± 0.05; (concentration: 6mM) 1.12 ± 0.082. Moreover, the NP40-soluble protein abundance (concentration: 8mM) was 1.12 ± 0.11 and the NP40-soluble protein abundance (concentration: 10mM) was 1.08 ± 0.021.
Consider “E9PG35 and related entries (UniProt Q96RQ3)”, for which the NP40-soluble protein abundance is 1.04 ± 0.093 (concentration: 0.1mM); 1.07 ± 0.078 (concentration: 0.5mM); 1.02 ± 0.16 (concentration: 1mM); 1.08 ± 0.11 (concentration: 2mM); 1.09 ± 0.15 (concentration: 4mM); 1.08 ± 0.077 (concentration: 6mM). Moreover, the NP40-soluble protein abundance was 1.05 ± 0.19 (concentration: 8mM) and 1.03 ± 0.13 (concentration: 10mM).
With “E9PKC0 and related entries (UniProt Q6IQ23)”, the NP40-soluble protein abundance by setting is: (concentration: 0.1mM) 1.03 ± 0.024; (concentration: 0.5mM) 1.06 ± 0.055; (concentration: 1mM) 1.11 ± 0.052; (concentration: 2mM) 1.16 ± 0.062; (concentration: 4mM) 1.21 ± 0.085; (concentration: 6mM) 1.22 ± 0.074. In addition, the NP40-soluble protein abundance is 1.24 ± 0.11 (concentration: 8mM) and 1.25 ± 0.13 (concentration: 10mM).
